Source: PubChem BioAssay AID1671190 (National Center for Advancing Translational Sciences (NCATS), 2021)
Hit rate of the full screen: of about 580,000 compounds, about 6,100 (1.1%) were called active. The inconclusive results got no clear call from the source; some entries with a clear call stand among them for comparison. Calls come from the whole dose curve; as a rule, active = well fitted inhibition curve with a large enough effect; inconclusive = small, poorly fitted or top-dose-only effect, or another doubt; inactive = no such curve, though single readings can be large or run the other way. A potency beside an inconclusive call is a rough fit, not a confirmed value.
% is set by controls: 0 for no effect and ±100 for the full control effect; potency is the fitted concentration of half-maximal effect.

Sequences of proteins named here, by UniProt entry; tags and fusion partners are left off.
UniProt P18054, whole entry, looked up: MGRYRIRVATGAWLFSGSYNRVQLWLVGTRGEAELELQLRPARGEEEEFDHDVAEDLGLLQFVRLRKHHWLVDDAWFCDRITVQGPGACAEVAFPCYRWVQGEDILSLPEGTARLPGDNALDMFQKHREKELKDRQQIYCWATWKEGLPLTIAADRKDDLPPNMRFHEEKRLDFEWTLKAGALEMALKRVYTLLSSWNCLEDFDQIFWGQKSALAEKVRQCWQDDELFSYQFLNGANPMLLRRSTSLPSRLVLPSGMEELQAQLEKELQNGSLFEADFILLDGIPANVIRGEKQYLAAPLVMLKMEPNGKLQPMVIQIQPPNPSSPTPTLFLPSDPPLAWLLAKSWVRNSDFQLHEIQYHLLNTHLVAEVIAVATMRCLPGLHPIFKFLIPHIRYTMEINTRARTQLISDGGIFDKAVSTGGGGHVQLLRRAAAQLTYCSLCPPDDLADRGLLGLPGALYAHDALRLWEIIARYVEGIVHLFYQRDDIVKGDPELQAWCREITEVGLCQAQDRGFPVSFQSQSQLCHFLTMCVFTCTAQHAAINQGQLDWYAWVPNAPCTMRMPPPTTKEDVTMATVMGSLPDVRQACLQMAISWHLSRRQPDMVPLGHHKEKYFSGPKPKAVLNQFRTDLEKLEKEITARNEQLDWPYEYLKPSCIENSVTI

Each molecule was assayed against Polyunsaturated fatty acid lipoxygenase ALOX12 (Homo sapiens) (UniProt P18054) (assay: Primary qHTS assay for inhibitors of human arachidonate 12S-lipoxygenase (ALOX12): Round 2). Settings: purified 12hLO, xylenol orange hydroperoxide absorbance; activity change, negative = inhibition: at 108 µM (top of the series) unless noted.
In short: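 Purified human 12hLO at 150 nM in 25 mM Hepes, 0.01% Triton X-100, pH 7.0, preincubated 15 min at room temperature with compound. Reaction started with 40 uM arachidonic acid, 30 min at room temperature. Hydroperoxide measured by Fe-xylenol orange, 573/405 nm absorbance ratio.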
With COCCC1(C(=O)O)CCCCC(=O)N1 (stereo not drawn) the Potency was inconclusive: 39.8 µM [inhibitor, partial curve, poor fit]. For Fc1ccccc1Nc1cnc2ccc(-c3ccccc3)nn12, the Potency was “inactive”. For O=C(Cn1cccc1-c1nc(-c2ccc3c(c2)OCO3)no1)Nc1ccc2c(c1)OCCO2, the Potency was inconclusive: 89.1 µM [inhibitor, single point]. O=C(CN1C(=O)S/C(=C\C=C\c2ccccc2)C1=O)Nc1cccc(O)c1 was tested, and the Potency was “inactive”. CCOC(=O)C1CCN(Cc2cccc(Oc3ccccc3)c2)CC1 was tested, and the Potency was inconclusive: 0.562 µM [inhibitor, full curve, poor fit]. CCC(C)c1ccccc1NC(=O)COc1ncnc2ccc(Br)cc12 (stereo not drawn) was tested, and the Potency was inconclusive: 56.2 µM [inhibitor, partial curve, poor fit]. CCN(CC)c1ccc(C2C(C(N)=O)=C(C)Nc3nc(SCc4ccccc4)nn32)cc1 (stereo not drawn) was tested, and the Potency was inconclusive: 56.2 µM [inhibitor, partial curve, poor fit]. For COc1ccc(C(=O)N2CCCC3(C2)NC(=O)N(Cc2ccc(C)cc2)C3=O)cc1OC (stereo not drawn), the Potency was inconclusive: 17.8 µM [inhibitor, full curve]. In the case of Nc1nc(-c2cccc(Br)c2)cs1, the Potency was inconclusive: 50.1 µM [inhibitor, partial curve, poor fit]. For CSc1cccc(NS(=O)(=O)c2ccc3[nH]cc(C(=O)N4CCCCCC4)c(=O)c3c2)c1, the Potency was inconclusive: 100 µM [inhibitor, partial curve, poor fit]. With O=C(COc1ccccc1)Nc1nn2cc(-c3ccccc3)nc2s1 the Potency was inconclusive: 0.398 µM [inhibitor, full curve, poor fit]. CC(C)(C)NC(=S)N1CCn2cccc2C1c1ccccc1F (stereo not drawn) was tested, and the Potency was inconclusive: 0.562 µM [inhibitor, full curve]. In the case of Cc1oc(-c2ccc(C(=O)NC3CCCC3)cc2)nc1CS(=O)c1ccccc1 (stereo not drawn), the Potency was inconclusive: 89.1 µM [inhibitor, partial curve, poor fit]. In the case of COc1ccc(C(=O)NC2CCCc3c2[nH]c2ccccc32)cc1OC (stereo not drawn), the Potency was inconclusive: 39.8 µM [inhibitor, partial curve, poor fit]. O=C1NCCCCCCN(C(=O)Nc2ccccc2)[C@H]2C[C@H](c3nc(Cc4ccccc4)no3)C[C@@H]12 was tested, and the Potency was “inactive”. With Cc1ccc(N2CC(NC(=O)Cc3ccc(F)cc3)CC2=O)cc1C (stereo not drawn) the Potency was inconclusive: 44.7 µM [inhibitor, partial curve, poor fit]. With Cc1ccc(C(=O)Oc2ccccc2C(=O)N2CCOCC2)cc1 the Potency was inconclusive: 0.199 µM [inhibitor, full curve, poor fit]. In the case of CC(C)C(=O)N1CCN(C(=O)C2CC(=O)N(c3cccc(C(F)(F)F)c3)C2)CC1 (stereo not drawn), the Potency was inconclusive: 112 µM [inhibitor, single point]. In the case of O=C(CSc1nnc(Nc2ccccc2)s1)NC1CCS(=O)(=O)C1 (stereo not drawn), the Potency was inconclusive: 100 µM [inhibitor, single point]. With CC(C)c1nnc(NC(=O)c2ccc(N3C(=O)CCC3=O)cc2)s1 the Potency was inconclusive: 79.4 µM [inhibitor, single point]. With CCOc1c(Br)cc(/C=C/C(=O)c2ccccc2)cc1OC the Potency was “inactive”. With O=C1C(n2ccc3ccccc32)c2cc(OC(F)(F)F)ccc2N1Cc1ccc(C(F)(F)F)cc1 (stereo not drawn) the Potency was inconclusive: 39.8 µM [inhibitor, partial curve]. With CC(CCc1ccc(O)cc1)NC(c1ccccc1)c1ccc(Cl)cc1 (stereo not drawn) the Potency was inconclusive: 126 µM [inhibitor, single point]. In the case of CC(=O)c1c(C)n[nH]c1C, the Potency was “inactive”. In the case of CC(=O)N(\C=C/C=C/C=C1\Sc2ccccc2C1=O)c1ccccc1, the Potency was active: 15.8 µM. O=C(CSc1nnc(-c2cccs2)n1CC1CCCO1)N1CCCC1 (stereo not drawn) was tested, and the Potency was “inactive”. With CN(C)c1ncnc2sc3c(c12)CCN(Cc1ccccc1)C3 the Potency was “inactive”. For Cc1ccc(/C=N/n2c(C3CCCCC3)n[nH]c2=S)o1, the Potency was inconclusive: 79.4 µM [inhibitor, partial curve, poor fit]. CN1CC(=O)N(C2CCNCC2)Cc2c(NCC3CCCCC3)ncnc21 was tested, and the Potency was inconclusive: 2.02 µM [inhibitor, partial curve]. For S=c1[nH]nc(-c2ccco2)n1-c1ccc(Cl)cc1, the Potency was active: 39.8 µM. With COc1cccc2cc(/C(=N/O)c3ccccc3)oc12 the activity change, negative = inhibition was inconclusive: -30.5% [inhibitor]. With COC(=O)c1ccc(CNC(=O)c2ccc(F)cc2)cc1 the Potency was inconclusive: 56.2 µM [inhibitor, partial curve, poor fit]. With O=C(c1cccc([N+](=O)[O-])c1)N1CCN(c2ccc(Cl)cc2)CC1 the Potency was “inactive”. CC(C)OCCCn1c(=N)c(C(N)=S)cc2c(=O)n3ccccc3nc21 was tested, and the Potency was inconclusive: 44.7 µM [inhibitor, partial curve, poor fit]. In the case of CC(Oc1ccc2ccccc2c1)C(=O)NNC(=S)NC(=O)c1ccco1 (stereo not drawn), the Potency was inconclusive: 35.5 µM [inhibitor, single point]. In the case of O=C(Nc1ccccc1)C(Cl)C(=O)c1ccccc1 (stereo not drawn), the Potency was inconclusive: 35.5 µM [inhibitor, partial curve, poor fit]. CN(C)C(=O)c1ccc(-c2cncnc2N(C)Cc2ccco2)cc1 was tested, and the Potency was inconclusive: 10 µM [inhibitor, full curve]. c1ccc2c(OCCCCN3CCOCC3)cccc2c1 was tested, and the Potency was inconclusive: 5.62 µM [inhibitor, full curve, poor fit]. With Clc1ccc(SCNc2ccccc2Cl)cc1 the Potency was inconclusive: 12.6 µM [inhibitor, partial curve, poor fit]. In the case of CCOC(=O)c1cc(CC)sc1NC(=O)CSc1nc2ccccc2c(=O)n1Cc1ccco1, the Potency was “inactive”. For CCN1CCN(c2ncc3c(n2)CCN(Cc2ccc(C)s2)C3)CC1, the Potency was “inactive”. In the case of Cc1cccc(CCNC(=O)c2nc(-c3ccc(Cl)cc3)n3c2CCCCC3)c1, the Potency was inconclusive: 50.1 µM [inhibitor, partial curve, poor fit]. With CN1CCc2c(sc3c2C(=O)NC(c2ccc(-c4ccc(Cl)cc4)o2)N3)C1 (stereo not drawn) the Potency was inconclusive: 44.7 µM [inhibitor, partial curve, poor fit].
